# Experimental data: PubChem BioAssay AID493014 (National Center for Advancing Translational Sciences (NCATS), 2011)
# Out of some 340,000 compounds screened, about 170 (0.05%) were called active. The inconclusive results got no clear call from the source; some entries with a clear call stand among them for comparison. Calls come from the whole dose curve; as a rule, active = well fitted inhibition curve with a large enough effect in the signal ratio, with a control signal flat (not every such curve was filed as active); inconclusive = small, poorly fitted or top-dose-only effect, or effect the other way, or a change in a side signal; inactive = flat fitted curve, though single readings scatter; the % refers to the signal ratio. Where the call is inconclusive, the potency comes from a doubtful curve fit.
# Assay: qHTS Assay to Find Inhibitors of Chronic Active B-Cell Receptor Signaling;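 for activity change, negative = inhibition: plate controls were basal doxycycline-induced cells for no effect and cells given 10 µM MG132 for full effect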
# Settings: ABC-DLBCL IkBa-CBG/CBR reporter, luminescence ratio (green luciferase fused to IkBa over red control in TMD8 lymphoma cells), 4 h; activity change, negative = inhibition: at 46.1 µM (top of the series)
# Summary of the method: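 Concentration-response series (up to 46 uM) were applied to TMD8 dual-reporter cells for 4 h at 37C with doxycycline. Green/red ratio, after filter-overlap correction, defined %Activity; red signal alone was normalised to basal cells and zero luminescence.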
# Potency is the fitted concentration of half-maximal effect.
SMILES,"activity change, negative = inhibition",Potency
CCCCOc1ccc(C(=O)CCN2CCOCC2)cc1,inconclusive: 3.07%,
CCOC(=O)c1c(CN(CC)CC)n(-c2ccccc2)c2ccc(O)cc12,inactive,
CCCCN1c2cc(C)c(O)cc2C(C(=O)OCC)C1C (configuration not stated),inconclusive: 5.39%,
Fc1cccc(NC(=S)N2CCc3ccccc32)c1,inactive,
CCOc1ccc(-n2c(SCC(N)=O)nc3c([nH]c4ccccc43)c2=O)cc1,inconclusive: -6.13%,
C/C(=N\NC(=O)C1CCCC1)c1ccc(Cl)c(Cl)c1,inconclusive: 5.32%,
COc1ccc(/C=N/OCC(=O)N=Nc2c(O)[nH]c3ccc(Br)cc23)cc1,,"inconclusive: 3.16 µM [falling, single point]"
COc1ccc(-c2cc(-c3ccc(OC)cc3)c(C#N)c(SC)n2)cc1,inconclusive: -3.16%,
O=C(CN1CCCC1)N1c2ccccc2Sc2ccccc21,inactive,
CCCn1c(C)cc(C(=O)COC(=O)c2cc(S(=O)(=O)NCC(C)C)c(Cl)cc2Cl)c1C,,"inconclusive: 29.1 µM [falling, single point]"
COc1ccc(N2CCN(Cc3ccc(Br)s3)CC2)cc1,,"inconclusive: 0.326 µM [falling, partial curve, poor fit]"
C=CCOC(=O)C(C#N)c1nc2ccccc2nc1N1CCN(c2ccccc2OC)CC1 (configuration not stated),inconclusive: 5.54%,
C=C(C)COc1ccc(-c2n[nH]c(C)c2-c2ccc(Br)cc2)c(O)c1,inconclusive: -4.27%,
N#Cc1c(N)oc(-c2ccco2)c1-c1ccco1,inconclusive: -0.636%,
O=C(OCC(=O)C12CC3CC(CC(C3)C1)C2)c1ccc(O)cc1O,,"inconclusive: 14.6 µM [rising, partial curve, poor fit]"
O=S(=O)(c1c(F)cccc1F)C1CCN(S(=O)(=O)c2ccc3c(c2)OCCO3)CC1,inconclusive: 2.32%,
CC(C)(C)c1ccc(C(=O)N/N=C2\C3CN4CCN(C3)CC2(c2ccccc2)C4)cc1,inactive,
CSc1ncccc1C(=O)NCc1ccc(C)cc1,inconclusive: 0.669%,
CCn1c(SCC(=O)Nc2nccs2)nnc1-c1ccc(S(=O)(=O)N2CCCCC2)cc1,inconclusive: 27.6%,
Cc1ccc(NC(=O)CNC(=O)c2cccc(C)c2)nc1,,"inconclusive: 29.1 µM [rising, single point]"
Cc1ccccc1C(=O)N1CCC(C(=O)N2CCN(Cc3ccc4c(c3)OCO4)CC2)CC1,inconclusive: -1.81%,
C=CCNC(=S)NNc1ncnc2sc3c(c12)CC(C)(C)OC3,,"inconclusive: 15.8 µM [falling, single point]"

# A draw from above in order of molecular weight, high to low.
SMILES,"activity change, negative = inhibition",Potency
O=S(=O)(c1c(F)cccc1F)C1CCN(S(=O)(=O)c2ccc3c(c2)OCCO3)CC1,inconclusive: 2.32%,
CCOc1ccc(-n2c(SCC(N)=O)nc3c([nH]c4ccccc43)c2=O)cc1,inconclusive: -6.13%,
CCOC(=O)c1c(CN(CC)CC)n(-c2ccccc2)c2ccc(O)cc12,inactive,
